Reference: publication doi:10.1101/352286
Results are given in words; binding and its absence hold for the method and conditions named. For some assays here: In cells and extracts the contact can be indirect. Some results given as binding are weak or reduced against the parent protein; the word gives no strength. For some assays here: Sequences can lack the tags named with a protein.

T1: GST-tagged Rad5p (S. cerevisiae) (UniProt P32849)
T1 sequence: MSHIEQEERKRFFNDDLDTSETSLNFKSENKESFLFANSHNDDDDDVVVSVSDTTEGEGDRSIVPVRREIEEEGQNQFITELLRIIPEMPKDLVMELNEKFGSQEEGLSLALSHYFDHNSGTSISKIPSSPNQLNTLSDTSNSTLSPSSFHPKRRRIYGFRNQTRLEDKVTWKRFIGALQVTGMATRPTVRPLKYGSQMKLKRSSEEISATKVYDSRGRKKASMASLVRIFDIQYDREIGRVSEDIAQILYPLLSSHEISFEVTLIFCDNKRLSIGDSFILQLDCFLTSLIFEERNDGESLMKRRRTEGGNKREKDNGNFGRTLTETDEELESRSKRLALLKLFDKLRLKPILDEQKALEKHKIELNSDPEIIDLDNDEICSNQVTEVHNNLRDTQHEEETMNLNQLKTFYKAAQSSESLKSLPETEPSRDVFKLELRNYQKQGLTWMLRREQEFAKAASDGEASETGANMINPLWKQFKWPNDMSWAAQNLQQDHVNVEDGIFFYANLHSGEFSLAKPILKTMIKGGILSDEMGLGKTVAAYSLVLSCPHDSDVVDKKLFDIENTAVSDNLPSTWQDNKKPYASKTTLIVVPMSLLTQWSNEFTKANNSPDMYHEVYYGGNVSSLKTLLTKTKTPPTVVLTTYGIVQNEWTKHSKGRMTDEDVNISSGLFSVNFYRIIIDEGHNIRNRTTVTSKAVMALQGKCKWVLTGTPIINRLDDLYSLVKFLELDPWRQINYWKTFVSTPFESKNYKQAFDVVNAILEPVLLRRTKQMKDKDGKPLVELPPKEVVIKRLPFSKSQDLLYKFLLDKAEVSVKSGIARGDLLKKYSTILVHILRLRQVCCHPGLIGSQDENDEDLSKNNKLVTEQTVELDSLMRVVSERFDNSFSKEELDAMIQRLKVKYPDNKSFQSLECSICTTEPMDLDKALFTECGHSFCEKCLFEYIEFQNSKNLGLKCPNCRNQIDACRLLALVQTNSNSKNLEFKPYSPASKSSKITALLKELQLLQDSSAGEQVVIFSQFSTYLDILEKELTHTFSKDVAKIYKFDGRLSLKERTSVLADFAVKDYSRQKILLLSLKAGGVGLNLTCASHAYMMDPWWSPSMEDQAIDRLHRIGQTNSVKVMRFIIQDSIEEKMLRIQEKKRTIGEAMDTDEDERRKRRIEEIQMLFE

T2: PCNA K168A fused to the DNA binding domain (BD) (S. cerevisiae), P15873
T2 chain: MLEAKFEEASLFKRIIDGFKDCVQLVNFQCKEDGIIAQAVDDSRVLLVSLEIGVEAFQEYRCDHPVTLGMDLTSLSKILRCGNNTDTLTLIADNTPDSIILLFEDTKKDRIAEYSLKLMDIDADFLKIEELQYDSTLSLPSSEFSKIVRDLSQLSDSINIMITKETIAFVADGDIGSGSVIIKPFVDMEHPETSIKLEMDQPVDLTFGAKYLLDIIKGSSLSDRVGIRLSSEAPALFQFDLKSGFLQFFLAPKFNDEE

B1: Rad5p fused to the activating domain (AD) (protein, UniProt P32849 1-1169)
chain: MSHIEQEERKRFFNDDLDTSETSLNFKSENKESFLFANSHNDDDDDVVVSVSDTTEGEGDRSIVPVRREIEEEGQNQFITELLRIIPEMPKDLVMELNEKFGSQEEGLSLALSHYFDHNSGTSISKIPSSPNQLNTLSDTSNSTLSPSSFHPKRRRIYGFRNQTRLEDKVTWKRFIGALQVTGMATRPTVRPLKYGSQMKLKRSSEEISATKVYDSRGRKKASMASLVRIFDIQYDREIGRVSEDIAQILYPLLSSHEISFEVTLIFCDNKRLSIGDSFILQLDCFLTSLIFEERNDGESLMKRRRTEGGNKREKDNGNFGRTLTETDEELESRSKRLALLKLFDKLRLKPILDEQKALEKHKIELNSDPEIIDLDNDEICSNQVTEVHNNLRDTQHEEETMNLNQLKTFYKAAQSSESLKSLPETEPSRDVFKLELRNYQKQGLTWMLRREQEFAKAASDGEASETGANMINPLWKQFKWPNDMSWAAQNLQQDHVNVEDGIFFYANLHSGEFSLAKPILKTMIKGGILSDEMGLGKTVAAYSLVLSCPHDSDVVDKKLFDIENTAVSDNLPSTWQDNKKPYASKTTLIVVPMSLLTQWSNEFTKANNSPDMYHEVYYGGNVSSLKTLLTKTKTPPTVVLTTYGIVQNEWTKHSKGRMTDEDVNISSGLFSVNFYRIIIDEGHNIRNRTTVTSKAVMALQGKCKWVLTGTPIINRLDDLYSLVKFLELDPWRQINYWKTFVSTPFESKNYKQAFDVVNAILEPVLLRRTKQMKDKDGKPLVELPPKEVVIKRLPFSKSQDLLYKFLLDKAEVSVKSGIARGDLLKKYSTILVHILRLRQVCCHPGLIGSQDENDEDLSKNNKLVTEQTVELDSLMRVVSERFDNSFSKEELDAMIQRLKVKYPDNKSFQSLECSICTTEPMDLDKALFTECGHSFCEKCLFEYIEFQNSKNLGLKCPNCRNQIDACRLLALVQTNSNSKNLEFKPYSPASKSSKITALLKELQLLQDSSAGEQVVIFSQFSTYLDILEKELTHTFSKDVAKIYKFDGRLSLKERTSVLADFAVKDYSRQKILLLSLKAGGVGLNLTCASHAYMMDPWWSPSMEDQAIDRLHRIGQTNSVKVMRFIIQDSIEEKMLRIQEKKRTIGEAMDTDEDERRKRRIEEIQMLFE
B2: RFC3 (protein, UniProt P38629 1-340)
chain: MSTSTEKRSKENLPWVEKYRPETLDEVYGQNEVITTVRKFVDEGKLPHLLFYGPPGTGKTSTIVALAREIYGKNYSNMVLELNASDDRGIDVVRNQIKDFASTRQIFSKGFKLIILDEADAMTNAAQNALRRVIERYTKNTRFCVLANYAHKLTPALLSRCTRFRFQPLPQEAIERRIANVLVHEKLKLSPNAEKALIELSNGDMRRVLNVLQSCKATLDNPDEDEISDDVIYECCGAPRPSDLKAVLKSILEDDWGTAHYTLNKVRSAKGLALIDLIEGIVKILEDYELQNEETRVHLLTKLADIEYSISKGGNDQIQGSAVIGAIKASFENETVKANV
B3: RAD18, P10862 1-487 (protein)
chain: MDHQITTASDFTTTSIPSLYQLDTLLRCHICKDFLKVPVLTPCGHTFCSLCIRTHLNNQPNCPLCLFEFRESLLRSEFLVSEIIQSYTSLRSSLLDALRIPKPTPVPENEEVPGPENSSWIELISESESDSVNAADDDLQIVATSERKLAKRSMTDILPLSSKPSKRNFAMFRSERIKKKSKPNEQMAQCPICQQFYPLKALEKTHLDECLTLQSLGKKPKISTTFPTESNPHNKSSSRFKVRTPEVDKSSCGETSHVDKYLNSMMSAEHQRLPKINFTSMTQSQIKQKLSSLGLSTNGTRQNMIKRYNHYEMLWNSNFCDSLEPVDEAELKRQLLSWDVSHNKTPQNSSNKGGISKLMIMKSNGKSSSYRKLLENFKNDKFNRKGWMVMFRKDFARLIREAKMKIKTGSSDSSGSVGHSNDGDGVEKVQSDQGTEDQQMEKDQDTVINEDRVAGERNLPNEDSTDADLSRELMDLNEYSKDPPGNN
B4: RAD18 (protein, UniProt P10862 1-487)
chain: MDHQITTASDFTTTSIPSLYQLDTLLRCHICKDFLKVPVLTPCGHTFCSLCIRTHLNNQPNCPLCLFEFRESLLRSEFLVSEIIQSYTSLRSSLLDALRIPKPTPVPENEEVPGPENSSWIELISESESDSVNAADDDLQIVATSERKLAKRSMTDILPLSSKPSKRNFAMFRSERIKKKSKPNEQMAQCPICQQFYPLKALEKTHLDECLTLQSLGKKPKISTTFPTESNPHNKSSSRFKVRTPEVDKSSCGETSHVDKYLNSMMSAEHQRLPKINFTSMTQSQIKQKLSSLGLSTNGTRQNMIKRYNHYEMLWNSNFCDSLEPVDEAELKRQLLSWDVSHNKTPQNSSNKGGISKLMIMKSNGKSSSYRKLLENFKNDKFNRKGWMVMFRKDFARLIREAKMKIKTGSSDSSGSVGHSNDGDGVEKVQSDQGTEDQQMEKDQDTVINEDRVAGERNLPNEDSTDADLSRELMDLNEYSKDPPGNN
B5: REV1 (protein, UniProt P12689 1-985)
chain: MGEHGGLVDLLDSDLEYSINRETPDKNNCLSQQSVNDSHLTAKTGGLNARSFLSTLSDDSLIEYVNQLSQTNKNNSNPTAGTLRFTTKNISCDELHADLGGGEDSPIARSVIEIQESDSNGDDVKKNTVYTREAYFHEKAHGQTLQDQILKDQYKDQISSQSSKIFKNCVIYINGYTKPGRLQLHEMIVLHGGKFLHYLSSKKTVTHIVASNLPLKKRIEFANYKVVSPDWIVDSVKEARLLPWQNYSLTSKLDEQQKKLDNCKTVNSIPLPSETSLHKGSKCVGSALLPVEQQSPVNLNNLEAKRIVACDDPDFLTSYFAHSRLHHLSAWKANLKDKFLNENIHKYTKITDKDTYIIFHIDFDCFFATVAYLCRSSSFSACDFKRDPIVVCHGTKNSDIASCNYVARSYGIKNGMWVSQAEKMLPNGIKLISLPYTFEQFQLKSEAFYSTLKRLNIFNLILPISIDEAVCVRIIPDNIHNTNTLNARLCEEIRQEIFQGTNGCTVSIGCSDSLVLARLALKMAKPNGYNITFKSNLSEEFWSSFKLDDLPGVGHSTLSRLESTFDSPHSLNDLRKRYTLDALKASVGSKLGMKIHLALQGQDDEESLKILYDPKEVLQRKSLSIDINWGIRFKNITQVDLFIERGCQYLLEKLNEINKTTSQITLKLMRRCKDAPIEPPKYMGMGRCDSFSRSSRLGIPTNEFGIIATEMKSLYRTLGCPPMELRGLALQFNKLVDVGPDNNQLKLRLPFKTIVTNRAFEALPEDVKNDINNEFEKRNYKRKESGLTSNSLSSKKKGFAISRLEVNDLPSTMEEQFMNELPTQIRAEVRHDLRIQKKIQQTKLGNLQEKIKRREESLQNEKNHFMGQNSIFQPIKFQNLTRFKKICQLVKQWVAETLGDGGPHEKDVKLFVKYLIKLCDSNRVHLVLHLSNLISRELNLCAFLNQDHSGFQTWERILLNDIIPLLNRNKHTYQTVRKLDMDFEV
B6: ECO1 (protein, UniProt P43605 1-281)
chain: MKARKSQRKAGSKPNLIQSKLQVNNGSKSNKIVKCDKCEMSYSSTSIEDRAIHEKYHTLQLHGRKWSPNWGSIVYTERNHSRTVHLSRSTGTITPLNSSPLKKSSPSITHQEEKIVYVRPDKSNGEVRAMTEIMTLVNNELNAPHDENVIWNSTTEEKGKAFVYIRNDRAVGIIIIENLYGGNGKTSSRGRWMVYDSRRLVQNVYPDFKIGISRIWVCRTARKLGIATKLIDVARENIVYGEVIPRYQVAWSQPTDSGGKLASKYNGIMHKSGKLLLPVYI
B7: DPB2 (protein, UniProt P24482 1-689)
chain: MFGSGNVLPVKIQPPLLRPLAYRVLSRKYGLSIKSDGLSALAEFVGTNIGANWRQGPATIKFLEQFAAVWKQQERGLFIDQSGVKEVIQEMKEREKVEWSHEHPIQHEENILGRTDDDENNSDDEMPIAADSSLQNVSLSSPMRQPTERDEYKQPFKPESSKALDWRDYFKVINASQQQRFSYNPHKMQFIFVPNKKQNGLGGIAGFLPDIEDKVQMFLTRYYLTNDRVMRNENFQNSDMFNPLSSMVSLQNELSNTNRQQQSSSMSITPIKNLLGRDAQNFLLLGLLNKNFKGNWSLEDPSGSVEIDISQTIPTQGHYYVPGCMVLVEGIYYSVGNKFHVTSMTLPPGERREITLETIGNLDLLGIHGISNNNFIARLDKDLKIRLHLLEKELTDHKFVILGANLFLDDLKIMTALSKILQKLNDDPPTLLIWQGSFTSVPVFASMSSRNISSSTQFKNNFDALATLLSRFDNLTENTTMIFIPGPNDLWGSMVSLGASGTLPQDPIPSAFTKKINKVCKNVVWSSNPTRIAYLSQEIVIFRDDLSGRFKRHRLEFPFNESEDVYTENDNMMSKDTDIVPIDELVKEPDQLPQKVQETRKLVKTILDQGHLSPFLDSLRPISWDLDHTLTLCPIPSTMVLCDTTSAQFDLTYNGCKVINPGSFIHNRRARYMEYVPSSKKTIQEEIYI

Experiments:
[1] = biological target: T1, GST-tagged Rad5p (S. cerevisiae); assay: co-IP
[2] = biological target: Wild-type PCNA (POL30) fused to the DNA binding domain (BD) (S. cerevisiae) (UniProt P15873); assay: two-hybrid
[3] = biological target: PCNA K168A fused to the DNA binding domain (BD) (S. cerevisiae) (UniProt P15873); assay: two-hybrid
[4] = biological target: T2, PCNA K168A fused to the DNA binding …; assay: two-hybrid; details: remark: other sources report otherwise

| Molecule | binding [2] | binding [3] | other results |
| --- | --- | --- | --- |
| HA-tagged wild-type PCNA (from UniProt P15873 1-258) |  |  | binding [1]: binds |
| B1 | binds |  |  |
| B2 | binds | binds |  |
| B3 |  |  | binding [4]: binds |
| B4 | binds |  |  |
| B5 |  | binds |  |
| B6 | binds | binds |  |
| B7 | binds | binds |  |
